Source: PubChem BioAssay AID1224830 (NIAID, 2016)
Purpose: 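Genes whose knock-down alters the TNF-alpha reporter response to LPS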 (primary screen). System: human THP-1 monocytic leukaemia cells, TNF dual-luciferase reporter clone, PMA-differentiated to macrophage-like cells. Reagent: siRNA pool against human genes, 50 nM. Time to read-out: LPS for 4 h, given about 3 days after siRNA transfection. Treatment: bacterial LPS (TLR4 ligand), 10 ng/ml. Measurement: 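Ratio of firefly to renilla light, scaled to the plate median and expressed as a robust z-score per replicate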. Reading the numbers: TNF reporter robust z-score: higher = stronger TNF reporter response to LPS. Call rule: 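Each well counts as active if its z-score is over 2.8 or under -1.5; controls are left without a call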.
In all, the deposit lists about 18,000 reagents; this is a part drawn at random. About 2,900 of all reagents (16%) were called active. 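Calls are made per well; low scores hint the gene aids the LPS response, high scores that it dampens it.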 Entries without a mark were called inactive. Repeated entries: four replicate wells of each siRNA pool.

MLH1 (mutL homolog 1)
- TNF reporter robust z-score: -0.27

MLH1 (mutL homolog 1)
- TNF reporter robust z-score: 0.85

MLH1 (mutL homolog 1)
- TNF reporter robust z-score: -0.12

MLH1 (mutL homolog 1)
- TNF reporter robust z-score: 0.26

CLDN15 (claudin 15)
- TNF reporter robust z-score: -0.31

CLDN15 (claudin 15)
- TNF reporter robust z-score: -0.55

CLDN15 (claudin 15)
- TNF reporter robust z-score: -1.96 (active)

CLDN15 (claudin 15)
- TNF reporter robust z-score: -1.01

VAT1 (vesicle amine transport 1)
- TNF reporter robust z-score: -0.09

VAT1 (vesicle amine transport 1)
- TNF reporter robust z-score: 0.08

VAT1 (vesicle amine transport 1)
- TNF reporter robust z-score: -0.28

VAT1 (vesicle amine transport 1)
- TNF reporter robust z-score: 0.01

USP42 (ubiquitin specific peptidase 42)
- TNF reporter robust z-score: 0.04

USP42 (ubiquitin specific peptidase 42)
- TNF reporter robust z-score: 1.07

USP42 (ubiquitin specific peptidase 42)
- TNF reporter robust z-score: 0.15

USP42 (ubiquitin specific peptidase 42)
- TNF reporter robust z-score: 1.5

MZT1 (mitotic spindle organizing protein 1)
- TNF reporter robust z-score: 0.93

MZT1 (mitotic spindle organizing protein 1)
- TNF reporter robust z-score: 0.02

MZT1 (mitotic spindle organizing protein 1)
- TNF reporter robust z-score: -0.44

MZT1 (mitotic spindle organizing protein 1)
- TNF reporter robust z-score: -0.14

PRTFDC1 (phosphoribosyl transferase domain containing 1)
- TNF reporter robust z-score: 0.9

PRTFDC1 (phosphoribosyl transferase domain containing 1)
- TNF reporter robust z-score: 1.85

PRTFDC1 (phosphoribosyl transferase domain containing 1)
- TNF reporter robust z-score: -0.29

PRTFDC1 (phosphoribosyl transferase domain containing 1)
- TNF reporter robust z-score: 0.27

MRPL42 (mitochondrial ribosomal protein L42)
- TNF reporter robust z-score: -0.57

MRPL42 (mitochondrial ribosomal protein L42)
- TNF reporter robust z-score: -0.09

MRPL42 (mitochondrial ribosomal protein L42)
- TNF reporter robust z-score: -0.23

MRPL42 (mitochondrial ribosomal protein L42)
- TNF reporter robust z-score: 1.47

CHMP7 (charged multivesicular body protein 7)
- TNF reporter robust z-score: -0.43

CHMP7 (charged multivesicular body protein 7)
- TNF reporter robust z-score: -0.04

CHMP7 (charged multivesicular body protein 7)
- TNF reporter robust z-score: -0.17

CHMP7 (charged multivesicular body protein 7)
- TNF reporter robust z-score: -0.33

TESC (tescalcin)
- TNF reporter robust z-score: -0.99

TESC (tescalcin)
- TNF reporter robust z-score: -0.33

TESC (tescalcin)
- TNF reporter robust z-score: -0.49

TESC (tescalcin)
- TNF reporter robust z-score: -0.73

TOMM20 (translocase of outer mitochondrial membrane 20)
- TNF reporter robust z-score: -0.69

TOMM20 (translocase of outer mitochondrial membrane 20)
- TNF reporter robust z-score: 1.77

TOMM20 (translocase of outer mitochondrial membrane 20)
- TNF reporter robust z-score: 0.47

TOMM20 (translocase of outer mitochondrial membrane 20)
- TNF reporter robust z-score: 0.39

QPRT (quinolinate phosphoribosyltransferase)
- TNF reporter robust z-score: 1.26

QPRT (quinolinate phosphoribosyltransferase)
- TNF reporter robust z-score: 0.86

QPRT (quinolinate phosphoribosyltransferase)
- TNF reporter robust z-score: 1.06

QPRT (quinolinate phosphoribosyltransferase)
- TNF reporter robust z-score: 2.12

CHAC1 (ChaC glutathione specific gamma-glutamylcyclotransferase 1)
- TNF reporter robust z-score: 3.68 (active)

CHAC1 (ChaC glutathione specific gamma-glutamylcyclotransferase 1)
- TNF reporter robust z-score: 1.31

CHAC1 (ChaC glutathione specific gamma-glutamylcyclotransferase 1)
- TNF reporter robust z-score: 0.26

CHAC1 (ChaC glutathione specific gamma-glutamylcyclotransferase 1)
- TNF reporter robust z-score: 1.01

Targets listed so far whose gene name begins with V or v (4):
VAT1 (vesicle amine transport 1)
- TNF reporter robust z-score: -0.09

VAT1 (vesicle amine transport 1)
- TNF reporter robust z-score: 0.08

VAT1 (vesicle amine transport 1)
- TNF reporter robust z-score: -0.28

VAT1 (vesicle amine transport 1)
- TNF reporter robust z-score: 0.01
